From the supplement of paper PMC12259267, “Disruption of the KLHL37–N-Myc complex restores N-Myc degradation and arrests neuroblastoma growth in mouse models” (The Journal of Clinical Investigation, 2025)
The list shows a part of the results. Single values are uncertain, as repeats are few or missing.

System: SK-N-BE(2)
Assay: inhibition of N-Myc immunofluorescence signal per cell relative to control (fraction); higher = stronger N-Myc protein reduction
Conditions: 1 µM; 9 h

Row | Compound | inhibition of N-Myc immunofluorescence signal per cell
1 | Cc1cc(C)c(CN2CCc3c(Cl)cc(-c4c(C)noc4C)c(Cl)c3C2=O)c(=O)[nH]1 | -0.0154
2 | COc1ccc(Cn2ccc3ccc(C(=O)NO)cc32)cc1 | 0.0374
3 | O=C(O)CNC(=O)c1c(O)c2ccccc2n(OCC2CC2)c1=O [Desidustat] | -0.0164
4 | Cc1cc(Cl)ccc1OCCCC(=O)NO [Droxinostat] | 0.195
5 | O=C1CC[C@H](N2Cc3c(OCc4ccc(CN5CCOCC5)cc4)cccc3C2=O)C(=O)N1 [Iberdomide] | 0.168
6 | COC(=O)C1=C(C(=O)OC)[C@@]2([C@@H](Cc3ccc(C)cc3)Nc3ccccc3)C=C[C@@H]1O2 | -0.0938
7 | Cc1nn2c([nH]c(=O)c3cccnc32)c1C#N | -0.0463
8 | COc1ccc(CNC(=O)CCl)cc1OC | 0.136
9 | CC(=O)N[C@H](C(=O)N1C[C@H](O)C[C@H]1C(=O)NCc1ccc(-c2scnc2C)cc1)C(C)(C)S [VH032 thiol] | 0.275
10 | COc1ccc(C(NC(=O)c2cnc(-c3cccnn3)[nH]c2=O)c2ccc(OC)cc2)cc1 | 0.0467
11 | Nc1cccc2c1CN(C1CCC(=O)NC1=O)C2=O (stereo unspecified) [Lenalidomide] | 0.208
12 | CC(C)C(C(=O)O)N1C(=O)C(=Cc2ccc(Br)cc2)SC1=S (stereo unspecified) | 0.00947
13 | Cc1nc(-c2cccnc2)sc1C(=O)Nc1ccccc1-c1cn2c(CN3CCOCC3)csc2n1 | -0.0941
14 | Nc1cc(F)ccc1NC(=O)c1ccc(CNC(=O)/C=C/c2cccnc2)cc1 [Tucidinostat] | -0.0231
15 | CCc1c(-c2ccc3[nH]ncc3c2)cnc(N)c1-c1ccc(O)cc1 | 0.141
16 | Cc1ncsc1-c1ccc(CNC(=O)[C@@H]2C[C@@H](O)CN2C(=O)[C@H](C(C)C)N2Cc3ccccc3C2=O)cc1 | 0.137

A draw from above in order of length of the SMILES, descending.
Row | Compound | inhibition of N-Myc immunofluorescence signal per cell
16 | Cc1ncsc1-c1ccc(CNC(=O)[C@@H]2C[C@@H](O)CN2C(=O)[C@H](C(C)C)N2Cc3ccccc3C2=O)cc1 | 0.137
13 | Cc1nc(-c2cccnc2)sc1C(=O)Nc1ccccc1-c1cn2c(CN3CCOCC3)csc2n1 | -0.0941
7 | Cc1nn2c([nH]c(=O)c3cccnc32)c1C#N | -0.0463
